{
  "sequences": {"note": "By UniProt entry, the sequences of proteins in these tests, tags left out. Where a name states a change or a piece, a line headed by the entry shows the natural chain unless it says otherwise.", "UniProt Q13642": "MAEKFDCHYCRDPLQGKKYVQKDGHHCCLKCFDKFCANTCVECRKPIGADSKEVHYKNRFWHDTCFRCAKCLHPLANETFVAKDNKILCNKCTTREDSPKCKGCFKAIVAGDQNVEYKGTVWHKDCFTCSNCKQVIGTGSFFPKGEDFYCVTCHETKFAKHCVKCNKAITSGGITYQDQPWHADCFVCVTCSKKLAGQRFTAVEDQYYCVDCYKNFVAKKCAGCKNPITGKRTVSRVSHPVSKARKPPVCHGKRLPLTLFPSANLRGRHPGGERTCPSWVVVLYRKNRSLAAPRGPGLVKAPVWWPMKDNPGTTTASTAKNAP", "UniProt Q9P0K8": "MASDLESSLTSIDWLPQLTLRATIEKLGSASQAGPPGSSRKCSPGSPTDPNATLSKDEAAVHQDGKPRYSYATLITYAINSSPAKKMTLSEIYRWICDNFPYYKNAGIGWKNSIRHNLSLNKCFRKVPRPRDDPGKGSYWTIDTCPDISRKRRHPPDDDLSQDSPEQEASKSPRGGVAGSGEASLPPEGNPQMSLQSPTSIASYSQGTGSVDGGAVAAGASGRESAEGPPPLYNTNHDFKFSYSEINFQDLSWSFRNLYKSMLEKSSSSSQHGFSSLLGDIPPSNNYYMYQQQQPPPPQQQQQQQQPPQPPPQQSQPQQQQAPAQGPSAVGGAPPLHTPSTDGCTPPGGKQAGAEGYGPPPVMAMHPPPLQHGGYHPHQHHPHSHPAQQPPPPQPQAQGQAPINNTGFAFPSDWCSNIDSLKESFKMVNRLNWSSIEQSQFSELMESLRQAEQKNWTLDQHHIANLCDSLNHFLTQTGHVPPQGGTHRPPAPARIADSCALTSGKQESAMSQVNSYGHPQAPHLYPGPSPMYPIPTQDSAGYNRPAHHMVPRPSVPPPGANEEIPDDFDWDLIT", "UniProt Q9NVK5": "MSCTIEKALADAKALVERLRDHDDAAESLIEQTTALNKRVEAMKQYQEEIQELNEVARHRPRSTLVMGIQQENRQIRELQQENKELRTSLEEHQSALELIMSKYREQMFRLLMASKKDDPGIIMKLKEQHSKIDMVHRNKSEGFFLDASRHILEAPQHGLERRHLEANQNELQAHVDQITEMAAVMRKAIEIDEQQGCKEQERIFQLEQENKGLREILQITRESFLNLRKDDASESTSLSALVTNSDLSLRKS", "UniProt Q8NFZ0": "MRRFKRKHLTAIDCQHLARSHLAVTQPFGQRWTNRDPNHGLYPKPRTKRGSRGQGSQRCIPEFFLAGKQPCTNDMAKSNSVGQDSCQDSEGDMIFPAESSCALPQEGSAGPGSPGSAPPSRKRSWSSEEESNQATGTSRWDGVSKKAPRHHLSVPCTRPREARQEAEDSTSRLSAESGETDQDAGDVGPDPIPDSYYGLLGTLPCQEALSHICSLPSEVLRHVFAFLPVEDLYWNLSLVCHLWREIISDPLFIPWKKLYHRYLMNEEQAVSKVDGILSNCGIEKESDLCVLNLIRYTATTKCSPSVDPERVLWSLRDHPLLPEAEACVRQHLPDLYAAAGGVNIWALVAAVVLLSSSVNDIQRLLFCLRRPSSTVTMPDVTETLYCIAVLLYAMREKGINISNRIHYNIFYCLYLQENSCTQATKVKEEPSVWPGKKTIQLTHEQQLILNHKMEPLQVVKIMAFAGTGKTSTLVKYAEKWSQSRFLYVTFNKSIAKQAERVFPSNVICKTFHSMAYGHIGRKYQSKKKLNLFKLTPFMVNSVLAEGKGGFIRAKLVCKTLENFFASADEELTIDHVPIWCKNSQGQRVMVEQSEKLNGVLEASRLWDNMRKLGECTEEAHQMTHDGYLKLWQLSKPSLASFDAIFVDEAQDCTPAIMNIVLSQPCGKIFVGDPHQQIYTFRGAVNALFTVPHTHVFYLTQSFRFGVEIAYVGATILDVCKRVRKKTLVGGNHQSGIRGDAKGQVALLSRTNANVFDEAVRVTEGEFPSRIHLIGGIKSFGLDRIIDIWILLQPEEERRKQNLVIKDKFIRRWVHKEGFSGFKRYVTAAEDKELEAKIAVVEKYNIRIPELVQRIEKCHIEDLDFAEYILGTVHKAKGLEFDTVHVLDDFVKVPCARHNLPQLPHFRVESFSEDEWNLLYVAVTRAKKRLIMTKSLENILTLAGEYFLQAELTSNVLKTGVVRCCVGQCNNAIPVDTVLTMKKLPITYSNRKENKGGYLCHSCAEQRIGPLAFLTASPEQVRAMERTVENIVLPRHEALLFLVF", "UniProt Q9UHY8": "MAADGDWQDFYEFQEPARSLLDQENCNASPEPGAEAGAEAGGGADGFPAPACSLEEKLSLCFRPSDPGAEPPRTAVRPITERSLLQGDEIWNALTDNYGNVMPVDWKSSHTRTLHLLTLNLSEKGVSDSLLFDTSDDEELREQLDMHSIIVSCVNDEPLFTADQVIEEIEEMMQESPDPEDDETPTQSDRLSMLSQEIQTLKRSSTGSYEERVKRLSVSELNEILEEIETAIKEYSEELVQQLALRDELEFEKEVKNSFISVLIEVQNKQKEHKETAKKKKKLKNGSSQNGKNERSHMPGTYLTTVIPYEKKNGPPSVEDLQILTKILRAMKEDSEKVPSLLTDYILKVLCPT", "UniProt Q86XK2": "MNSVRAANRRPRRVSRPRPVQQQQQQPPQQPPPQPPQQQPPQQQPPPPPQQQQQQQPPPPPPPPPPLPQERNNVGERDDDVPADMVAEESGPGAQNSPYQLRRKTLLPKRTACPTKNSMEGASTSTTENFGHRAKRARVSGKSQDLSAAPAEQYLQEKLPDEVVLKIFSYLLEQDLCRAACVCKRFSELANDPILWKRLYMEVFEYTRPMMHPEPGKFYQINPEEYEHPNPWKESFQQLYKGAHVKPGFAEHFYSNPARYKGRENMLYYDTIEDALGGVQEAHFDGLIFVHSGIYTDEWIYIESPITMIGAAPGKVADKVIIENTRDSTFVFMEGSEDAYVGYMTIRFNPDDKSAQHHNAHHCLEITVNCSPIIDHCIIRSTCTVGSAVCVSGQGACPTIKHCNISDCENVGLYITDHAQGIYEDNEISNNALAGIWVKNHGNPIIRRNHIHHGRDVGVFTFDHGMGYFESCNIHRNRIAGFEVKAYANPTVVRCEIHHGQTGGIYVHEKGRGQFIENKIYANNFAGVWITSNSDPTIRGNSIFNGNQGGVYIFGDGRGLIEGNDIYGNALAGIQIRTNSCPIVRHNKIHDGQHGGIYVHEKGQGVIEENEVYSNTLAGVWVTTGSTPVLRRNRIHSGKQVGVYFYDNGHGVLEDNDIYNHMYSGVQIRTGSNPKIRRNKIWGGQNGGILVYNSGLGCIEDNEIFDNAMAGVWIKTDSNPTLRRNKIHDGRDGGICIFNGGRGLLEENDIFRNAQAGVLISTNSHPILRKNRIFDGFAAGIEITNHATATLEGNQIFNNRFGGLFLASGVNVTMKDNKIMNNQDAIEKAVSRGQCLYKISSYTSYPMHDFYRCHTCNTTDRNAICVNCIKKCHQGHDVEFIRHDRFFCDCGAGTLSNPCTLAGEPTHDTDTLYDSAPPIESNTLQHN", "UniProt Q96AY3, whole entry, looked up": "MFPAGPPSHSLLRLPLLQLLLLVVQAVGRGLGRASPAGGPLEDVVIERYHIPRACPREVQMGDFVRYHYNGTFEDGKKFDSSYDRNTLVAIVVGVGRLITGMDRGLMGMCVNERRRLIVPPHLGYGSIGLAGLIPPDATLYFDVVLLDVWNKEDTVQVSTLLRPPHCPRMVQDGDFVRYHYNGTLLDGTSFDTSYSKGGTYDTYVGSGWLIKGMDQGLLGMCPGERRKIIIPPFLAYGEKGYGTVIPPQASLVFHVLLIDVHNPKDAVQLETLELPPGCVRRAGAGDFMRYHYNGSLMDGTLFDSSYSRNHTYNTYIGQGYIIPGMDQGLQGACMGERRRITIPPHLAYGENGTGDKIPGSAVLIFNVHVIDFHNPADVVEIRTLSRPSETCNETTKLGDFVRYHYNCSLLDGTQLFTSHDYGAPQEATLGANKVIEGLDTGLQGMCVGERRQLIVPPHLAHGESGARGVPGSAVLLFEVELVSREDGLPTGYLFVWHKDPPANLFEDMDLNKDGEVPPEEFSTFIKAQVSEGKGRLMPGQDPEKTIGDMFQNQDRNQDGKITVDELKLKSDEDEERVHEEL", "UniProt Q9NPI8": "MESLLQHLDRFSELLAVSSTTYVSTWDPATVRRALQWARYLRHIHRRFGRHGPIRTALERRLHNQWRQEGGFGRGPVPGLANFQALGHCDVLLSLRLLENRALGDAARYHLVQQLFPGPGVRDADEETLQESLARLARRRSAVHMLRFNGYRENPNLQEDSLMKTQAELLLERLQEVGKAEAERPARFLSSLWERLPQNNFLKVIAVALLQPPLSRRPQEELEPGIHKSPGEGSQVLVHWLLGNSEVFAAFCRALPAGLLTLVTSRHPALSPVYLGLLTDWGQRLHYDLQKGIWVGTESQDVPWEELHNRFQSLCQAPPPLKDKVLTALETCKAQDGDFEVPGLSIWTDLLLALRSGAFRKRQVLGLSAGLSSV", "UniProt Q96IV6": "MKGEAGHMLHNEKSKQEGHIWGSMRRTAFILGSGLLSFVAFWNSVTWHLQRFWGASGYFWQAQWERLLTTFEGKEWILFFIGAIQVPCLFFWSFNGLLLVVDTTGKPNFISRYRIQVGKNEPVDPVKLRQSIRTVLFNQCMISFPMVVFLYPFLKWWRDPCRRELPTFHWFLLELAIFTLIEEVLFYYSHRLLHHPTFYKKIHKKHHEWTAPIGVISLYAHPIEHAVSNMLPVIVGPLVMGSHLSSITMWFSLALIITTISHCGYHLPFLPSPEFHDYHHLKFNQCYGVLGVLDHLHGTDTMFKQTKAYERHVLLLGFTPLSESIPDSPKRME", "UniProt Q9Y2H6": "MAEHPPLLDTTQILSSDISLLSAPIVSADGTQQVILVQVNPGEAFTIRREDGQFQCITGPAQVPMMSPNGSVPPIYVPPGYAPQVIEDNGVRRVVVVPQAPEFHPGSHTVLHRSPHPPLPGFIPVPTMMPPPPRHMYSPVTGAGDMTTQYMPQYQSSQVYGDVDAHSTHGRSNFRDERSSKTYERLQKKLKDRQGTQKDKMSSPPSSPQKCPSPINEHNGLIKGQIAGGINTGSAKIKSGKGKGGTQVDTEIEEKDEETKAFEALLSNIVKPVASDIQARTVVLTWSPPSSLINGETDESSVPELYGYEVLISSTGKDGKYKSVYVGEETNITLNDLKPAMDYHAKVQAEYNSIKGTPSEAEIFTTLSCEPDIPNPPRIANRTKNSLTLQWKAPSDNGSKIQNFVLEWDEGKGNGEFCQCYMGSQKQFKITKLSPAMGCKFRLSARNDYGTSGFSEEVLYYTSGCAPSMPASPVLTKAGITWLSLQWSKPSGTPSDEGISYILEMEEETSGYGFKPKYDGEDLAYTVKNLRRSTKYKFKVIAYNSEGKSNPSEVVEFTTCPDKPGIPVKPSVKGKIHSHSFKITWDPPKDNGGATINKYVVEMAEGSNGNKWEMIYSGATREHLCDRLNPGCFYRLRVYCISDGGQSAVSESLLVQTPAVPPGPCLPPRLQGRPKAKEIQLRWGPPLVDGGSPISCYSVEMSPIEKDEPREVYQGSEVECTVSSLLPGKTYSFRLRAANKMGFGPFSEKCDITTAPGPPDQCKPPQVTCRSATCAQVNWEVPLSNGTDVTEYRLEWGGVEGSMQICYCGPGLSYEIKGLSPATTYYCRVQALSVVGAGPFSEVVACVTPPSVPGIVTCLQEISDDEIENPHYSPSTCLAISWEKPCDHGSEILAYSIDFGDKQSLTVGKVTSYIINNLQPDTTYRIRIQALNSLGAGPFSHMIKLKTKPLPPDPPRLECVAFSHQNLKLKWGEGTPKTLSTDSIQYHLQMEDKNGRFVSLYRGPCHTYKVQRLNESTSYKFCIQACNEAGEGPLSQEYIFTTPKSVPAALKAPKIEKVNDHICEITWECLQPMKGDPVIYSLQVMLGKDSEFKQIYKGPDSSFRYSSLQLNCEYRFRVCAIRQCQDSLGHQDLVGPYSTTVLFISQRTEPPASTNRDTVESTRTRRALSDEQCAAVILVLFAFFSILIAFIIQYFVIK", "UniProt Q9UKB1": "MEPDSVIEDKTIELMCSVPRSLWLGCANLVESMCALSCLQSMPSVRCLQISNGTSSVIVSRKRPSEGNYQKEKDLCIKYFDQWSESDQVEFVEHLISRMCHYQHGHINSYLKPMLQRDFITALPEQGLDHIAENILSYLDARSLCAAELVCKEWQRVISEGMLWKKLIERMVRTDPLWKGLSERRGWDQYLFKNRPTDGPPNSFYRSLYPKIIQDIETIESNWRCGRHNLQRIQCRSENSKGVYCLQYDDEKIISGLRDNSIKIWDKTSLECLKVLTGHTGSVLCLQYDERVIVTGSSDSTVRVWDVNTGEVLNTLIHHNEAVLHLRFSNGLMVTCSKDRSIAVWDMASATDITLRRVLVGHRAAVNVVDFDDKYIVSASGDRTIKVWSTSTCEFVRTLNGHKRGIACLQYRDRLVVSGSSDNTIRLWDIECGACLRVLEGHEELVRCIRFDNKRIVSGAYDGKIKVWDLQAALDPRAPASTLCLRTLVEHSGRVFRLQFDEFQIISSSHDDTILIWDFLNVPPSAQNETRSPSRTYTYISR"},
  "source": "the supplement of paper PMC10849652",
  "note": "The list shows a part of the results.",
  "data": [
    {"compound": "c1ccc([C@@H]2C[C@H]2NC2CCNCC2)cc1", "assay": "log2 fold change, soluble protein after heating vs DMSO (PISA); higher = thermal stabilisation; K562 lysate, 10 uM; active = over 0.2 and 3.5 SD of the protein, either way, in both replicates (recomputed)", "in_short": "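K562 pellets were dounce-homogenised in PBS pH 7.4 with 1 mM MgCl2, and the crude extract at 1 mg/mL protein was treated with 10 μM compound for 30 min. Aliquots were heated for 3 min across 48°C-58°C, pooled, and brought to 0.5% NP-40 at 4°C; soluble protein was the supernatant after 21,000xg for 90 min. Soluble protein was quantified by TMTpro 16plex LC-MS/MS with channel sums equalised, and reported as log2 fold change in thermal stability against DMSO controls, with values from duplicates.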", "values": [
      {"target": "FANCE (UniProt Q9HB96)", "log2 fold change": "inactive: 0.087"},
      {"target": "FHL1 isoform 4 (UniProt Q13642)", "log2 fold change": "inactive: 0.246"},
      {"target": "FOXJ2 (UniProt Q9P0K8)", "log2 fold change": "inactive: 0.039"},
      {"target": "FGFR1OP2 isoform 2 (UniProt Q9NVK5)", "log2 fold change": "inactive: 0.105"},
      {"target": "FBH1 isoform 2 (UniProt Q8NFZ0)", "log2 fold change": "inactive: 0.083"},
      {"target": "FIZ1 (UniProt Q96SL8)", "log2 fold change": "inactive: -0.239"},
      {"target": "FARP2 (UniProt O94887)", "log2 fold change": "inactive: -0.057"},
      {"target": "FCF1 (UniProt Q9Y324)", "log2 fold change": "inactive: 0.02"},
      {"target": "FER isoform 3 (UniProt P16591)", "log2 fold change": "inactive: -0.187"},
      {"target": "FARP2 (UniProt H7C3M7)", "log2 fold change": "inactive: -0.015"},
      {"target": "FANCG (UniProt O15287)", "log2 fold change": "inactive: 0.028"},
      {"target": "FBXL15 (UniProt Q9H469)", "log2 fold change": "inactive: -0.093"},
      {"target": "FEZ2 (UniProt Q9UHY8)", "log2 fold change": "inactive: -0.046"},
      {"target": "FKRP (UniProt Q9H9S5)", "log2 fold change": "inactive: -0.136"},
      {"target": "FBXO11 isoform 5 (UniProt Q86XK2)", "log2 fold change": "inactive: 0.021"},
      {"target": "FASTKD1 (UniProt Q53R41)", "log2 fold change": "inactive: 0.021"},
      {"target": "FGF13 isoform 3 (UniProt Q92913)", "log2 fold change": "inactive: 0.032"},
      {"target": "FOS (UniProt P01100)", "log2 fold change": "inactive: -0.001"},
      {"target": "FKBP10 (UniProt Q96AY3)", "log2 fold change": "inactive: 0.015"},
      {"target": "FOSL1 (UniProt P15407)", "log2 fold change": "inactive: -0.048"},
      {"target": "FAT1 (UniProt Q14517)", "log2 fold change": "inactive: -0.092"},
      {"target": "FEN1 (UniProt I3L3E9)", "log2 fold change": "inactive: 0.011"},
      {"target": "FANCF (UniProt Q9NPI8)", "log2 fold change": "inactive: 0.266"},
      {"target": "FAXDC2 (UniProt Q96IV6)", "log2 fold change": "inactive: -0.111"},
      {"target": "FNDC3A (UniProt Q9Y2H6)", "log2 fold change": "inactive: -0.136"},
      {"target": "FAM83H (UniProt Q6ZRV2)", "log2 fold change": "inactive: -0.03"},
      {"target": "FANCL isoform 2 (UniProt Q9NW38)", "log2 fold change": "inactive: 0.028"},
      {"target": "FBXW11 (UniProt Q9UKB1)", "log2 fold change": "inactive: -0.005"}
    ]}
  ]
}
